At least one compound was matched to its structure with a doubt left. *1 amine or outer side, *2 acyl side, *3 side chain or, on linkers, in order; H or OH if unused. Where a SMILES comes first, the peptide text is derived from it. [ ]: non-standard residue; d: D form. MeBmt = C/C=C/C[C@@H](C)[C@@H](O)[C@H](NC)C(=O)O; X1 = CCN(CC)CCS[C@H](C(=O)[*:2])N(C)[*:1]; NMeL = CN[C@@H](CC(C)C)C(=O)O; NMeV = CN[C@H](C(=O)O)C(C)C; Abu = CC[C@H](N)C(=O)O
Assay: Epimerization in MeOH at 50° C. (500 MHz NMR)

C/C=C/C[C@@H](C)[C@@H](O)[C@H]1C(=O)N[C@@H](CC)C(=O)N(C)[C@H](SCCN(CC)CC)C(=O)N(C)[C@@H](CC(C)C)C(=O)N[C@@H](C(C)C)C(=O)N(C)[C@@H](CC(C)C)C(=O)N[C@@H](C)C(=O)N[C@H](C)C(=O)N(C)[C@@H](CC(C)C)C(=O)N(C)[C@@H](CC(C)C)C(=O)N(C)[C@@H](C(C)C)C(=O)N1C [[(R)-(3-diethylaminoethylthio-Sar]^3 cyclosporin A, reference compound] (cyclo([MeBmt][Abu][X1][NMeL]V[NMeL]A[dA][NMeL][NMeL][NMeV]))
Epimerization (%) (time 0 days): 0% | Epimerization (%) (time 1 day): 15%

Source: patent publication US9561259B2, “Cyclosporin analogs” (priority 2010, dated 2017)
